Measurements published in US10273251B2, “Composition, cured film, near infrared ray absorption filter, solid-state imaging device, infrared sensor, and compound” (FUJIFILM Corporation, priority 2014, dated 2019).

Columns and labels:
[1] = Evaluation of transparency in a visible region of filter; details: filter 1.0 μm, 7.5 mass % compound; minimum transmittance at 500 to 600 nm
Method: (§1) Compositions below were mixed so as to prepare the composition. A solid content of the composition is 31 mass % and a content of the near infrared ray absorption substance with respect to the total solid content of the composition was 7.5 mass %.
(§2) Glass substrates (1737 manufactured by Corning Incorporated) were coated with respective compositions by using a spin coater such that film thicknesses after drying become 1.0 μm, and a heating treatment (prebaking) was performed for 120 seconds by using a hot plate of 100° C.
(§3) Subsequently, beta exposure was performed by 500 mJ/cm^2 by using an i-ray stepper exposure device FPA-3000i5+ (manufactured by Canon Inc.). Subsequently, puddle development was performed at 23° C. for 60 seconds by using CD-2060 (manufactured by Fujifilm Electronic Materials), a rinse treatment was performed with pure water on a glass substrate on which a beta coloration layer was formed, and spray drying was performed.
(§4) The heating treatment (post baking) was performed for 300 seconds by using a hot plate of 200° C., so as to obtain a near infrared ray absorption filter.
Transmittance of the respective near infrared ray absorption filters at a wavelength of 500 to 600 nm was measured by a spectrophotometer U-4100 (manufactured by Hitachi High-Technologies Corporation). Transparency in a visible region was evaluated with criteria below.

[2] = Near infrared shielding property evaluation of filter; details: filter 1.0 μm, 7.5 mass % compound; transmittance at maximum absorption wavelength
Method: as §1, §2, §3, §4
Transmittance of the respective near infrared ray absorption filters at maximum absorption wavelengths was measured by a spectrophotometer U-4100 (manufactured by Hitachi High-Technologies Corporation). Near infrared shielding properties were evaluated with criteria below.

Compound | Transparency in visible region [1] | Near infrared shielding properties [2]
CCCCCCCCC(CCCCCC)COc1cccc(-c2c3/c(=C(\C#N)c4cnc5cc(Cl)c(Cl)cc5n4)n(B(c4ccccc4)c4ccccc4)c(-c4cccc(OCC(CCCCCC)CCCCCCCC)c4)c3/c(=C(\C#N)c3cnc4cc(Cl)c(Cl)cc4n3)n2B(c2ccccc2)c2ccccc2)c1 [Compound D-1] | A (95%≤minimum value of transmittance at a wavelength of 500 to 600 nm) | A (transmittance of maximum absorption wavelength≤5%)
COCCOCCOc1cccc(-c2c3/c(=C(\C#N)c4cnc5cc(Cl)c(Cl)cc5n4)n(B(c4ccccc4)c4ccccc4)c(-c4cccc(OCCOCCOC)c4)c3/c(=C(\C#N)c3cnc4cc(Cl)c(Cl)cc4n3)n2B(c2ccccc2)c2ccccc2)c1 [Compound D-4] | B (90%≤minimum value of transmittance at a wavelength of 500 to 600 nm<95%) | A (transmittance of maximum absorption wavelength≤5%)
CCCCCCCC/C=C\CCCCCCCCOc1cccc(-c2c3/c(=C(\C#N)c4cnc5cc(Cl)c(Cl)cc5n4)n(B(c4ccccc4)c4ccccc4)c(-c4cccc(OCCCCCCCC/C=C\CCCCCCCC)c4)c3/c(=C(\C#N)c3cnc4cc(Cl)c(Cl)cc4n3)n2B(c2ccccc2)c2ccccc2)c1 [Compound D-5] | B (90%≤minimum value of transmittance at a wavelength of 500 to 600 nm<95%) | A (transmittance of maximum absorption wavelength≤5%)
Cc1cc2ncc(/C(C#N)=c3/c4c(-c5cccc(OCC(CCC(C)CC(C)(C)C)C(C)CC(C)(C)C)c5)n(B(c5ccccc5)c5ccccc5)/c(=C(/C#N)c5cnc6cc(C)c(C)cc6n5)c4c(-c4cccc(OCC(CCC(C)CC(C)(C)C)C(C)CC(C)(C)C)c4)n3B(c3ccccc3)c3ccccc3)nc2cc1C [Compound D-6] | A (95%≤minimum value of transmittance at a wavelength of 500 to 600 nm) | A (transmittance of maximum absorption wavelength≤5%)
CCC(C)COc1cccc(-c2c3/c(=C(\C#N)c4cnc5ccccc5n4)n(B(c4ccccc4)c4ccccc4)c(-c4cccc(OCC(C)CC)c4)c3/c(=C(\C#N)c3cnc4ccccc4n3)n2B(c2ccccc2)c2ccccc2)c1 [Compound D-7] | B (90%≤minimum value of transmittance at a wavelength of 500 to 600 nm<95%) | A (transmittance of maximum absorption wavelength≤5%)
CCCCCCCCC(CCCCCCCC)COc1cccc(-c2c3/c(=C(\C#N)c4cnc5cc(C)ccc5n4)n(B(c4ccccc4)c4ccccc4)c(-c4cccc(OCC(CCCCCCCC)CCCCCCCC)c4)c3/c(=C(\C#N)c3cnc4cc(C)ccc4n3)n2B(c2ccccc2)c2ccccc2)c1 [Compound D-8] | A (95%≤minimum value of transmittance at a wavelength of 500 to 600 nm) | A (transmittance of maximum absorption wavelength≤5%)
CCCCC(CC)COc1cccc(-c2c3/c(=C(\C#N)c4ccc5ccccc5n4)n(B(c4ccccc4)c4ccccc4)c(-c4cccc(OCC(CC)CCCC)c4)c3/c(=C(\C#N)c3ccc4ccccc4n3)n2B(c2ccccc2)c2ccccc2)c1 [Compound D-10] | A (95%≤minimum value of transmittance at a wavelength of 500 to 600 nm) | A (transmittance of maximum absorption wavelength≤5%)
CCCCCCCCCCCCCCCCCCOc1cccc(-c2c3/c(=C(\C#N)c4nc5ccccc5s4)n(B(c4ccccc4)c4ccccc4)c(-c4cccc(OCCCCCCCCCCCCCCCCCC)c4)c3/c(=C(\C#N)c3nc4ccccc4s3)n2B(c2ccccc2)c2ccccc2)c1 [Compound D-11] | B (90%≤minimum value of transmittance at a wavelength of 500 to 600 nm<95%) | A (transmittance of maximum absorption wavelength≤5%)
CC(CCC(COc1cccc(-c2c3/c(=C(\C#N)c4cnc5ccccc5n4)n(B(c4ccccc4)c4ccccc4)c(-c4cccc(OCC(CCC(C)CC(C)(C)C)C(C)CC(C)(C)C)c4)c3/c(=C(\C#N)c3cnc4ccccc4n3)n2B(c2ccccc2)c2ccccc2)c1)C(C)CC(C)(C)C)CC(C)(C)C [Compound D-28] | A (95%≤minimum value of transmittance at a wavelength of 500 to 600 nm) | A (transmittance of maximum absorption wavelength≤5%)
CCCCCCCCCCC(CCCCCCCC)COc1cccc(-c2c3/c(=C(\C#N)c4cnc5ccccc5n4)n(B(c4ccccc4)c4ccccc4)c(-c4cccc(OCC(CCCCCCCC)CCCCCCCCCC)c4)c3/c(=C(\C#N)c3cnc4ccccc4n3)n2B(c2ccccc2)c2ccccc2)c1 [Compound D-29] | A (95%≤minimum value of transmittance at a wavelength of 500 to 600 nm) | A (transmittance of maximum absorption wavelength≤5%)
CCCCCCCCCCC(CCCCCCCC)COc1cccc(-c2c3/c(=C(\C#N)c4cnc5cc(Cl)c(Cl)cc5n4)n(B(c4ccccc4)c4ccccc4)c(-c4cccc(OCC(CCCCCCCC)CCCCCCCCCC)c4)c3/c(=C(\C#N)c3cnc4cc(Cl)c(Cl)cc4n3)n2B(c2ccccc2)c2ccccc2)c1 [Compound D-31] | A (95%≤minimum value of transmittance at a wavelength of 500 to 600 nm) | A (transmittance of maximum absorption wavelength≤5%)
CC(CCC(COc1cccc(-c2c3/c(=C(\C#N)c4cnc5cc(Cl)c(Cl)cc5n4)n(B(c4ccccc4)c4ccccc4)c(-c4cccc(OCC(CCC(C)CC(C)(C)C)C(C)CC(C)(C)C)c4)c3/c(=C(\C#N)c3cnc4cc(Cl)c(Cl)cc4n3)n2B(c2ccccc2)c2ccccc2)c1)C(C)CC(C)(C)C)CC(C)(C)C [Compound D-32] | A (95%≤minimum value of transmittance at a wavelength of 500 to 600 nm) | A (transmittance of maximum absorption wavelength≤5%)
COc1ccc2oc(/C(C#N)=c3/c4c(-c5cccc(OCC(CCC(C)CC(C)(C)C)C(C)CC(C)(C)C)c5)n(B(c5ccccc5)c5ccccc5)/c(=C(/C#N)c5nc6cc(C)ccc6o5)c4c(-c4cccc(OCC(CCC(C)CC(C)(C)C)C(C)CC(C)(C)C)c4)n3B(c3ccccc3)c3ccccc3)nc2c1 [Compound D-43] | A (95%≤minimum value of transmittance at a wavelength of 500 to 600 nm) | A (transmittance of maximum absorption wavelength≤5%)
CCCCCCCCC(CCCCCC)COc1ccc(-c2c3/c(=C(\C#N)c4cnc5cc(Cl)c(Cl)cc5n4)n(B(c4ccccc4)c4ccccc4)c(-c4ccc(OCC(CCCCCC)CCCCCCCC)cc4)c3/c(=C(\C#N)c3cnc4cc(Cl)c(Cl)cc4n3)n2B(c2ccccc2)c2ccccc2)cc1 (stereo not shown) [Compound E-1, reference compound] | C (80%≤minimum value of transmittance at a wavelength of 500 to 600 nm<90%) | A (transmittance of maximum absorption wavelength≤5%)
